Taken from: PubChem BioAssay AID1259425 (University of Nebraska Medical Center, 2018)
Purpose: 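Find knockdowns that reproduce the gene expression pattern seen when KSR1 is lost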 (primary screen). System: HCT116 human colon cancer cells. Knock-down reagent: siRNA pool against human genes, 50 nM siRNA. Read-out: 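After 50 nM siRNA pool, branched-DNA assay measures six marker transcripts per well, minus blank, normalised to the geometric mean of two housekeeping transcripts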. Scale: BNIP3L mRNA: higher = more BNIP3L transcript after knockdown; NDRG1 mRNA: higher = more NDRG1 transcript after knockdown; BNIP3 mRNA: higher = more BNIP3 transcript after knockdown; ALDOC mRNA: higher = more ALDOC transcript after knockdown; ACSL5 mRNA: higher = more ACSL5 transcript after knockdown.
Here is an unselected part of about 14,000 reagents tested. No sequences are given here. Not stated in the record: the time to read-out.

The opening 5 records, to show the layout:
| gene | PubChem SID | BNIP3L mRNA, set 1 | NDRG1 mRNA, set 1 | BNIP3 mRNA, set 1 | ALDOC mRNA, set 1 | ACSL5 mRNA, set 1 |
| --- | --- | --- | --- | --- | --- | --- |
| CCDC8 | SID364003759 | 0.212 | 0.413 | 0.334 | 0.0784 | 0.356 |
| SPAG9 | SID363995024 | 0.052 | 0.491 | 0.284 | 0.0186 | 0.064 |
| DPYSL2 | SID363992657 | 0.0633 | 0.22 | 0.219 | 0.0331 | 0.0769 |
| KLHL25 | SID364002465 | 0.104 | 0.148 | 0.308 | 0.0152 | 0.155 |
| AGTPBP1 | SID363999376 | 0.0705 | 0.194 | 0.219 | 0.0191 | 0.235 |

The listing, repeating the preview:
| gene | PubChem SID | BNIP3L mRNA, set 1 | NDRG1 mRNA, set 1 | BNIP3 mRNA, set 1 | ALDOC mRNA, set 1 | ACSL5 mRNA, set 1 |
| --- | --- | --- | --- | --- | --- | --- |
| CCDC8 | SID364003759 | 0.212 | 0.413 | 0.334 | 0.0784 | 0.356 |
| SPAG9 | SID363995024 | 0.052 | 0.491 | 0.284 | 0.0186 | 0.064 |
| DPYSL2 | SID363992657 | 0.0633 | 0.22 | 0.219 | 0.0331 | 0.0769 |
| KLHL25 | SID364002465 | 0.104 | 0.148 | 0.308 | 0.0152 | 0.155 |
| AGTPBP1 | SID363999376 | 0.0705 | 0.194 | 0.219 | 0.0191 | 0.235 |
| SLC75A1 | SID363992414 | 0.339 | 0.428 | 0.51 | 0.0607 | 0.256 |
| ALDH9A1 | SID363991995 | 0.166 | 0.128 | 0.242 | 0.0118 | 0.141 |
| PRDX2 | SID363996687 | 0.0422 | 0.0781 | 0.191 | 0.00655 | 0.0619 |
| HOMEZ | SID364001858 | 0.106 | 0.103 | 0.416 | 0.0161 | 0.265 |
| ADORA1 | SID363991973 | 0.211 | 0.252 | 0.586 | 0.0326 | 0.266 |
| SPCS1 | SID363998567 | 0.146 | 0.146 | 0.322 | 0.03 | 0.0732 |
| XKR8 | SID364000741 | 0.142 | 0.245 | 0.206 | 0.0821 | 0.182 |
| EPHB1 | SID363995423 | 0.0605 | 0.103 | 0.177 | 0.00571 | 0.197 |
| PDZD11 | SID364000138 | 0.172 | 0.142 | 0.42 | 0.0181 | 0.152 |
| UBE2D2 | SID363994455 | 0.0978 | 0.102 | 0.286 | 0.0184 | 0.275 |
| ANO10 | SID364000760 | 0.115 | 0.141 | 0.275 | 0.0752 | 0.263 |
| NOXA1 | SID363997435 | 0.133 | 0.139 | 0.261 | 0.0313 | 0.189 |
| PCDHGA5 | SID364001245 | 0.102 | 0.144 | 0.206 | 0.0397 | 0.155 |
| RERE | SID363998051 | 0.107 | 0.137 | 0.268 | 0.00771 | 0.204 |
| DET1 | SID364000695 | 0.0993 | 0.537 | 0.323 | 0.0159 | 0.124 |
| ICAM5 | SID363994380 | 0.17 | 0.172 | 0.269 | 0 | 0.147 |
| ANXA2 | SID363995049 | 0.078 | 0.123 | 0.227 | 0.0102 | 0.194 |
| DUX4L1 | SID364004339 | 0.0479 | 0.131 | 0.337 | 0.0221 | 0.16 |
| NR2C1 | SID363994416 | 0.047 | 0.122 | 0.152 | 0.0102 | 0.0887 |
| PLG | SID363991633 | 0.0947 | 0.188 | 0.283 | 0.0195 | 0.109 |
| RFX1 | SID363994072 | 0.107 | 0.128 | 0.32 | 0.0204 | 0.164 |
| NDUFS4 | SID363993668 | 0.0795 | 0.0908 | 0.181 | 0.0179 | 0.0664 |
| PMEL | SID363997681 | 0.148 | 0.709 | 0.474 | 0.0362 | 0.266 |
| SMPD4 | SID364000497 | 0.168 | 0.287 | 0.439 | 0.034 | 0.113 |
| RORC | SID363995998 | 0.1 | 0.0805 | 0.169 | 0.0122 | 0.0873 |
| CALCOCO1 | SID364001888 | -0.0996 | 0.551 | 0.301 | 0.0545 | 0.254 |
| PSMB9 | SID363993957 | 0.0652 | 0.369 | 0.276 | 0.0283 | 0.104 |
| CYTH3 | SID363995226 | 0.112 | 0.216 | 0.31 | 0.0355 | 0.16 |
| HTR2C | SID363992155 | 0.142 | 0.257 | 0.324 | 0.0409 | 0.223 |
| OTULINL | SID364001333 | 0.119 | 0.121 | 0.417 | 0.0275 | 0.231 |
| TEP1 | SID363997826 | 0.121 | 0.192 | 0.366 | 0.0323 | 0.196 |
| PPP6R2 | SID363999028 | 0.125 | 0.175 | 0.309 | 0.04 | 0.116 |
| CES1 | SID363992551 | 0.143 | 0.17 | 0.255 | -0.00505 | 0.226 |
| MRGPRX1 | SID364004684 | 0.258 | 0.308 | 0.605 | 0.0616 | 0.26 |
| RILPL2 | SID364004642 | 0.0861 | 0.291 | 0.303 | 0.0147 | 0.184 |
| ZMYND11 | SID363997412 | 0.0898 | 0.11 | 0.213 | 0.0147 | 0.08 |
| PDIA2 | SID363997613 | 0.129 | 0.282 | 0.244 | 0.0276 | 0.0806 |
| RUSC2 | SID364005208 | 0.386 | 0.672 | 0.718 | 0.0735 | 0.253 |
| TMEM62 | SID364003186 | 0.106 | 0.288 | 0.22 | 0.0178 | 0.249 |
| MMS19 | SID364002417 | 0.1 | 0.281 | 0.341 | 0.0214 | 0.234 |
| MNX1 | SID363996416 | 0.132 | 0.285 | 0.428 | 0.012 | 0.325 |
| C11orf24 | SID364002398 | 0.0825 | 0.277 | 0.292 | 0.0199 | 0.0803 |
| AGBL2 | SID364003054 | 0.121 | 0.174 | 0.336 | 0.0294 | 0.312 |
| ZNF212 | SID363998178 | 0.0692 | 0.167 | 0.369 | 0.0197 | 0.166 |
| ENTPD7 | SID364001623 | 0.245 | 0.218 | 0.542 | 0.0624 | 0.339 |
